Reference: patent US11065314B2, “Peptides and combination of peptides for use in immunotherapy against breast cancer and other cancers” (Immatics Biotechnologies GmbH, priority 2015, dated 2021)

Columns and labels:
[1] = system: breast cancer samples vs. panel of normal tissues; test: Label-free LC-MS quantitation of HLA-presented peptides (presentation profile, over-presentation score); set-up: species or system human; key: very highly over-presented on tumors compared to a panel of normal tissues (+++); highly over-presented on tumors compared to a panel of normal tissues (++); over-presented on tumors compared to a panel of normal tissues (+); conditions: breast cancer tumors compared to a panel of normal tissues
[2] = system: tumor samples of other cancer types; test: LC-MS detection of the HLA-presented peptide on samples of other tumor types (FIGS. 1A-1D); set-up: species or system human
[3] = gallbladder and bile duct cancers

| Sequence | Peptide Presentation (presentation score) [1] | other results |
| --- | --- | --- |
| ALAGSSPQV (listed as Homo sapiens) [SEQ ID NO: 2, HLA-A*02 peptide, source gene CNTD2] | +++ |  |
| ALEEQLHQV (listed as Homo sapiens) [SEQ ID NO: 19, HLA-A*02 peptide, source genes KRT25, KRT28, KRT27] | +++ |  |
| ALNPVIYTV (listed as Homo sapiens) [SEQ ID NO: 5, HLA-A*02 peptide, source gene DRD4] | +++ |  |
| ALTALQNYL (listed as Homo sapiens) [SEQ ID NO: 6, HLA-A*02 peptide, source gene TFAP2B] | +++ |  |
| FIIPTVATA (listed as Homo sapiens) [SEQ ID NO: 7, HLA-A*02 peptide, source gene ABCC11] | +++ |  |
| FLDEEVKLI (listed as Homo sapiens) [SEQ ID NO: 43, HLA-A*02 peptide, source gene FTL] | + |  |
| FLSSEAANV (listed as Homo sapiens) [SEQ ID NO: 30, HLA-A*02 peptide, source gene TNFAIP2] | +++ |  |
| FMSKLVPAI (listed as Homo sapiens) [SEQ ID NO: 9, HLA-A*02 peptide, source gene TPRG1] | +++ |  |
| FSFPVSVGV (listed as Homo sapiens) [SEQ ID NO: 20, HLA-A*02 peptide, source gene DUSP4] |  | peptide additionally detected on tumor samples (positive/measured) [2, 3]: 2/6; peptide additionally detected on tumor samples (positive/measured) ([2]; gastric cancers): 7/47; peptide additionally detected on tumor samples (positive/measured) ([2]; melanomas): 8/12; peptide additionally detected on tumor samples (positive/measured) ([2]; non-Hodgkin lymphomas): 10/20; peptide additionally detected on tumor samples (positive/measured) ([2]; non-small cell lung cancers): 23/89; peptide additionally detected on tumor samples (positive/measured) ([2]; ovarian cancers): 2/20; peptide additionally detected on tumor samples (positive/measured) ([2]; pancreatic cancers): 2/19; peptide additionally detected on tumor samples (positive/measured) ([2]; renal cell cancers): 2/18; peptide additionally detected on tumor samples (positive/measured) ([2]; small cell lung cancers): 2/17; peptide additionally detected on tumor samples (positive/measured) ([2]; urinary bladder cancers): 6/15; peptide additionally detected on tumor samples (positive/measured) ([2]; uterine cancers): 2/15 |
| GLHSLPPEV (listed as Homo sapiens) [SEQ ID NO: 10, HLA-A*02 peptide, source gene LRRC8E] | +++ |  |
| GLLGFQAEA (listed as Homo sapiens) [SEQ ID NO: 24, HLA-A*02 peptide, source gene MAGED1] |  | peptide additionally detected on tumor samples (positive/measured) ([2]; acute myeloid leukemias): 4/21; peptide additionally detected on tumor samples (positive/measured) ([2]; brain cancers): 6/31; peptide additionally detected on tumor samples (positive/measured) ([2]; chronic lymphocytic leukemias): 1/17; peptide additionally detected on tumor samples (positive/measured) ([2]; colorectal cancers): 2/27; peptide additionally detected on tumor samples (positive/measured) ([2]; esophageal cancers): 3/18; peptide additionally detected on tumor samples (positive/measured) [2, 3]: 1/6; peptide additionally detected on tumor samples (positive/measured) ([2]; gastric cancers): 3/47; peptide additionally detected on tumor samples (positive/measured) ([2]; hepatocellular cancers): 3/18; peptide additionally detected on tumor samples (positive/measured) ([2]; melanomas): 3/12; peptide additionally detected on tumor samples (positive/measured) ([2]; non-Hodgkin lymphomas): 6/20; peptide additionally detected on tumor samples (positive/measured) ([2]; non-small cell lung cancers): 12/89; peptide additionally detected on tumor samples (positive/measured) ([2]; ovarian cancers): 7/20; peptide additionally detected on tumor samples (positive/measured) ([2]; pancreatic cancers): 1/19; peptide additionally detected on tumor samples (positive/measured) ([2]; prostate cancers): 2/48; peptide additionally detected on tumor samples (positive/measured) ([2]; renal cell cancers): 2/18; peptide additionally detected on tumor samples (positive/measured) ([2]; uterine cancers): 3/15 |
| GLLPTSVSPRV (listed as Homo sapiens) [SEQ ID NO: 11, HLA-A*02 peptide, source gene SCUBE2] | +++ |  |
| GLSYIYNTV (listed as Homo sapiens) [SEQ ID NO: 31, HLA-A*02 peptide, source gene COG6] | ++ |  |
| GLVATLQSL (listed as Homo sapiens) [SEQ ID NO: 32, HLA-A*02 peptide, source gene IFI6] | ++ |  |
| GLVQSLTSI (listed as Homo sapiens) [SEQ ID NO: 8, HLA-A*02 peptide, source gene ABCC11] | +++ |  |
| ILLPPAHNJQ (ILLPPAHNSQ; phospho-serine; listed as Homo sapiens) [SEQ ID NO: 3, HLA-A*02 peptide, source gene HEATR5B; J = phospho-serine] | +++ |  |
| ILTELPPGV (listed as Homo sapiens) [SEQ ID NO: 33, HLA-A*02 peptide, source gene ZNF407] | +++ |  |
| KAFPFYNTV (listed as Homo sapiens) [SEQ ID NO: 12, HLA-A*02 peptide, source gene NAIP] | +++ |  |
| KLLDMELEM (listed as Homo sapiens) [SEQ ID NO: 39, HLA-A*02 peptide, source gene FAH] | ++ |  |

| Sequence | Peptide Presentation (presentation score) [1] | other results |
| --- | --- | --- |
| KLYEGIPVL (listed as Homo sapiens) [SEQ ID NO: 13, HLA-A*02 peptide, source gene NEK10] | +++ |  |
| KMPEHISTV (listed as Homo sapiens) [SEQ ID NO: 1, HLA-A*02 peptide, source gene CILP] | +++ | peptide additionally detected on tumor samples (positive/measured) ([2]; non-small cell lung cancers): 2/89; peptide additionally detected on tumor samples (positive/measured) ([2]; pancreatic cancers): 1/19 |
| KQLELELEV (listed as Homo sapiens) [SEQ ID NO: 14, HLA-A*02 peptide, source gene MUC6] | +++ |  |
| LLMUVAGLKL (LLMTVAGLKL; phospho-threonine; listed as Homo sapiens) [SEQ ID NO: 38, HLA-A*02 peptide, source gene PCNXL3; U = phospho-threonine] | +++ |  |
| SAAFPGASL (listed as Homo sapiens) [SEQ ID NO: 40, HLA-A*02 peptide, source gene DAZAP2] | ++ |  |
| SAFPEVRSL (listed as Homo sapiens) [SEQ ID NO: 34, HLA-A*02 peptide, source gene THADA] | + |  |
| SLADAVEKV (listed as Homo sapiens) [SEQ ID NO: 23, HLA-A*02 peptide, source gene CCDC122] | ++ |  |
| SLAEPRVSV (listed as Homo sapiens) [SEQ ID NO: 27, HLA-A*02 peptide, source gene FASN] | + |  |
| SLAWDVPAA (listed as Homo sapiens) [SEQ ID NO: 26, HLA-A*02 peptide, source gene FASN] | ++ |  |
| SLFPSLVVV (listed as Homo sapiens) [SEQ ID NO: 15, HLA-A*02 peptide, source gene PLEC] | +++ |  |
| SLLSEIQAL (listed as Homo sapiens) [SEQ ID NO: 35, HLA-A*02 peptide, source genes AKAP9, PCNT] | ++ |  |
| SLLTEPALV (listed as Homo sapiens) [SEQ ID NO: 21, HLA-A*02 peptide, source gene TBC1D9] | ++ |  |
| SLVEGEAVHLA (listed as Homo sapiens) [SEQ ID NO: 4, HLA-A*02 peptide, source genes TFAP2E, TFAP2A, TFAP2B, TFAP2C] | +++ | peptide additionally detected on tumor samples (positive/measured) ([2]; esophageal cancers): 1/18; peptide additionally detected on tumor samples (positive/measured) [2, 3]: 1/6; peptide additionally detected on tumor samples (positive/measured) ([2]; non-small cell lung cancers): 1/89; peptide additionally detected on tumor samples (positive/measured) ([2]; ovarian cancers): 1/20 |
| SMMGLLTNL (listed as Homo sapiens) [SEQ ID NO: 16, HLA-A*02 peptide, source gene ESR1] | +++ |  |
| TIASSIEKA (listed as Homo sapiens) [SEQ ID NO: 17, HLA-A*02 peptide, source gene STPG2] | +++ |  |
| TLLGLAVNV (listed as Homo sapiens) [SEQ ID NO: 36, HLA-A*02 peptide, source gene CHPT1] | ++ |  |
| VLAHITADI (listed as Homo sapiens) [SEQ ID NO: 37, HLA-A*02 peptide, source gene KDM5B] | +++ |  |
| YIDGLESRV (listed as Homo sapiens) [SEQ ID NO: 22, HLA-A*02 peptide, source gene CREB3L4] | ++ |  |
| YILLQSPQL (listed as Homo sapiens) [SEQ ID NO: 18, HLA-A*02 peptide, source gene MUC6] | +++ |  |
